Data on 1 compound can be found in paper PMC12844124, “Synthesis and Study of Substituted Chalcones Combined with Fluoroazobenzenes—New Photoswitches for Application in Biological Systems” (Molecules, 2026).

For the assay, the system named is PC-3 cells. Nature of the assay: MTS cell proliferation assay, PC-3. Format: cell-based. The conditions noted are these: Homo sapiens. As to the method: Human BJ fibroblasts (American Type Cell Culture Collection, Manassas, VA, USA, CRL-2522) and human prostate cancer cell line PC-3 (American Type Cell Culture Collection, Manassas, VA, USA, CRL-1435), derived from bone metastases, were routinely grown in […]) Medium (ThermoFisher, Waltham, MA, USA, 21127-022) and supplemented with heat-inactivated 10% Fetal Bovine Serum (Biowest, France, […]) and 1% antibiotic solution (Biowest, Nuaillé, France, L0022), in a humidified 5% CO2 atmosphere at 37 °C. Cells were used between 3 and 20 passages. […] The cell proliferation was analyzed with CellTiter Aqueous One Solution Cell Proliferation MTS (3-(4,5-dimethylthiazol-2-yl)-5-(3-carboxymethoxyphenyl)-2-(4-sulfophenyl)-2H-tetrazolium) Assay (Promega, Madison, WI, USA, G5430) after 24 or 48 h of treatment. The absorbance was measured at 490 and 670 nm with FLUOStar Omega plate reader (BMG LABTECH GmbH, Ortenberg, Germany). […] To assess the goodness of fit for each of the biological replicates, deviance R^2 (DR^2) was calculated and assessed. […] The DR^2 was calculated according to the following Equation: 1 - (Dres/Dnull), where Dres-residual deviance and Dnull-null deviance (deviance of the model with mean as a predicted value). The null hypothesis was assessed with the two-way ANOVA with Tukey's post hoc test for multiple comparisons or with the two-way t-test when only two groups were compared. […]
On the technique in general: Tetrazolium dyes change colour on reduction, which living cells bring about.

For the compound `COc1cc2c(c(OC)c1OC)-c1ccc(OC)c(=O)cc1[C@@H](NC(C)=O)CC2` [colchicine, reference compound], the IC50 – broadly, the concentration needed to halve the response being measured – runs as follows: (PC-3, 24 h) 23.5 ± 2.75 nM; (PC-3, 48 h) 12.5 ± 1.26 nM.
